PubChem BioAssay AID1671190 (National Center for Advancing Translational Sciences (NCATS), 2021)
Screen size: about 580,000 compounds; about 6,100 (1.1%) were called active. The inconclusive results got no clear call from the source; some entries with a clear call stand among them for comparison. The call rests on the fitted dose curve; in most records, active means well fitted inhibition curve with a large enough effect; inconclusive means small, poorly fitted or top-dose-only effect, or another doubt; inactive means no such curve, though single readings can be large or run the other way. A potency beside an inconclusive call is a rough fit, not a confirmed value.

By UniProt entry, the sequences of proteins in these tests, tags left out. Where a name states a change or a piece, a line headed by the entry shows the natural chain unless it says otherwise.
UniProt P18054: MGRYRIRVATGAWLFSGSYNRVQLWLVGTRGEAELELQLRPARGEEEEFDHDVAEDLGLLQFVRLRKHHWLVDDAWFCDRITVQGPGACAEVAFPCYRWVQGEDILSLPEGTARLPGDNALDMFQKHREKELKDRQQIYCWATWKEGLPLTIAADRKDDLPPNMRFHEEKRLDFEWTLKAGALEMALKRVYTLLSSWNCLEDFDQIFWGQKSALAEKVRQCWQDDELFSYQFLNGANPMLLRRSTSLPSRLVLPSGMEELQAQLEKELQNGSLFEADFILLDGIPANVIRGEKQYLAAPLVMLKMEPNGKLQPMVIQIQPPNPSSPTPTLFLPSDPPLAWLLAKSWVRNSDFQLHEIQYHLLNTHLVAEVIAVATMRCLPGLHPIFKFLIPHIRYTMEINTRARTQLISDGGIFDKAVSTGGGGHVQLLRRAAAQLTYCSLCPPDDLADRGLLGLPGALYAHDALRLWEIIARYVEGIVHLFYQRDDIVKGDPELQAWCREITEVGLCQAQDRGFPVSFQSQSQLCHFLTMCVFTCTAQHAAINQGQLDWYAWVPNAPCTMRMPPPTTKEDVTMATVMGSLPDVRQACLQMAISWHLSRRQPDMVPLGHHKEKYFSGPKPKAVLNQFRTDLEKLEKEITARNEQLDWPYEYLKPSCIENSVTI

Molecular target: Polyunsaturated fatty acid lipoxygenase ALOX12 (Homo sapiens) (UniProt P18054)
Assay: Primary qHTS assay for inhibitors of human arachidonate 12S-lipoxygenase (ALOX12): Round 2
Conditions: purified 12hLO, xylenol orange hydroperoxide absorbance; activity change, negative = inhibition: at 108 µM (top of the series) unless noted
Outline: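 Purified human 12hLO (150 nM final) in 25 mM Hepes, 0.01% Triton X-100, pH 7.0 was preincubated 15 min at room temperature with compound. Then 40 uM arachidonic acid was added, 30 min. Hydroperoxide was read by Fe-XO absorbance ratio 573/405 nm.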
On the % scale 0 is the no-effect control and ±100 the full control effect; potency means the concentration at half of the fitted maximal effect.

SMILES	Potency	activity change, negative = inhibition
c1ccc(-c2noc(C3CCCCC3)n2)nc1	inconclusive: 22.4 µM [inhibitor, partial curve, poor fit]	
CCN(CC)C(=O)CSc1n[nH]c(=S)n1N	inconclusive: 50.1 µM [inhibitor, partial curve, poor fit]	
O=C(O)/C=C/c1cc(F)ccc1F		inactive: 5.55%
COc1ccc(OC)c(-c2nc3ccccc3nc2-c2ccccc2)c1	inconclusive: 112 µM [inhibitor, single point]	
Cc1ccc(S(=O)(=O)N2[C@@H]3CC[C@H]2CC(NC(=O)c2ccncc2)C3)c(C)c1 (stereo partly drawn)	active: 17.8 µM	
COc1ccc(CCNC(=S)N2CCN(S(=O)(=O)c3cccc(F)c3)CC2)cc1		inactive: 9.53%
CC(C)(C)c1nnc(NS(=O)(=O)c2ccc([N+](=O)[O-])cc2)s1	inconclusive: 50.1 µM [inhibitor, partial curve, poor fit]	
CCCCCCCCCCCC(=O)NC(Cc1ccc(OC)c([N+](=O)[O-])c1)C(=O)O (stereo not drawn)	inconclusive: 158 µM [inhibitor, single point]	
O=C1NC[C@H](CC2CCCCC2)N(CC2CCCCC2)C1=O	inconclusive: 100 µM [inhibitor, single point]	
CSc1nc(O)c(C(c2ccc(O)cc2)c2c(O)nc(SC)[nH]c2=O)c(=O)[nH]1	inconclusive: 44.7 µM [inhibitor, partial curve, poor fit]	
COCCNC(=O)C(NC(=O)c1ccccc1F)C1CCN(C(=O)c2ccccc2F)CC1 (stereo not drawn)		inactive: 67.7%
CCOCCCNC(=O)CCn1ccc2cc(S(=O)(=O)N3CCCCC3)ccc21	inconclusive: 39.8 µM [inhibitor, partial curve, poor fit]	
CCOC(=O)NC(=O)/C(C#N)=N\Nc1ccc(Cl)cc1	inconclusive: 2 µM [inhibitor, full curve, poor fit]	
CCN(CC)C(=O)/C=C/c1csc(C)n1		inactive: -2.54%
CC(=O)Nc1ccc2c(=O)n(-c3ccccc3)sc2c1	active: 1 µM	
O=C(NCCO)c1nc2ccccc2s1		inactive: 0%
Cc1ccc(C(=O)NNC(=O)Cc2cccs2)cc1	inconclusive: 89.1 µM [inhibitor, single point]	
Cc1ccc(N(C(=O)c2snc(C(N)=O)c2N)C(C(=O)NC2CCCC2)c2ccc(C)o2)cc1 (stereo not drawn)	inconclusive: 44.7 µM [inhibitor, partial curve]	
Cc1nc2c(OCc3ccc(Cl)cc3Cl)cccn2c1N(C)Cc1cccs1	inconclusive: 44.7 µM [inhibitor, partial curve, poor fit]	
FC(F)(F)c1ccccc1Cc1c(-c2ccco2)nc2ccc(Cl)cn12		inactive: 199%
CCN1C(=O)N[C@@H](c2cccc(C(F)(F)F)c2)C(C(=O)OC)=C1C		inactive: -39.7%
COC(=O)c1ccccc1NC(=O)N1CCC(N2CCN(Cc3ccc(F)cc3)C(=O)C2=O)CC1	inconclusive: 89.1 µM [inhibitor, partial curve, poor fit]	

SMILES	Potency	activity change, negative = inhibition
Brc1ccc(C2=NOC(c3ccc(Br)cc3)C2)cc1 (stereo not drawn)	inconclusive: 44.7 µM [inhibitor, partial curve, poor fit]	
COCCOc1ccc2c(n1)CCN(C(=O)c1nn(C)c3ccccc13)C2		inactive: 33.2%
CC(C)(C)C(=O)CSc1nccc(C(F)(F)F)n1	inconclusive: 35.5 µM [inhibitor, single point]	
Cc1ccc(NS(=O)(=O)c2ccc3c(c2)NC(=O)CO3)cc1C	inconclusive: 7.94 µM [inhibitor, full curve, poor fit]	
O=C(COc1ccccc1Cl)Nc1ccc2c(c1)C(=O)NC2=O	inconclusive: 50.1 µM [inhibitor, partial curve, poor fit]	
O=C(O)CSCc1cn2cc(Cl)ccc2n1	inconclusive: 31.6 µM [inhibitor, single point]	
C#CCOc1ccc(OC(=O)c2ccc(OCCCCCC)cc2)cc1	inconclusive: 25.1 µM [inhibitor, single point]	
Cc1ccc(NC(=O)/C=C\C(=O)N(c2ccc(C(C)C)cc2)C(C(=O)NCc2ccco2)c2ccc(F)cc2)cc1 (stereo not drawn)		inconclusive: -41.8% [inhibitor]
COc1cccc(Cn2cnc(-c3ccccc3OC)c2-c2cccs2)c1	inconclusive: 28.2 µM [inhibitor, partial curve, poor fit]	
Cc1ccc(NC(=O)C(C#N)C(=O)CCC(C)C)c(C)c1 (stereo not drawn)	inconclusive: 10 µM [inhibitor, full curve]	
COc1cc2c(cc1OC)CN(Cc1cc(=O)c(OCc3c(F)cccc3Cl)co1)CC2	inconclusive: 35.5 µM [inhibitor, partial curve, poor fit]	
CC(C)C(=O)N1CCN(c2nc3c(s2)CC(C(=O)Nc2ccc(Cl)cc2)CC3)CC1 (stereo not drawn)	active: 31.6 µM	
N#C/C(=C\c1cn(Cc2ccccc2)c2ccccc12)C(=O)NCc1ccco1		inactive: 23.3%
CN1CC(=O)N(C2CCNC2)Cc2c(NCC3CC3)ncnc21 (stereo not drawn)	inconclusive: 35.5 µM [inhibitor, partial curve]	
CN(C(=O)c1ccc(I)cc1)C1CCCCC1	inconclusive: 39.8 µM [inhibitor, single point]	
COc1ccccc1CNC(=O)CSc1ccc(C(=O)Nc2ccccc2OC)cc1[N+](=O)[O-]		inactive: -6.54%
COc1ccc(-c2cc(-c3ccc4c(c3)CNC4=O)cn3cncc23)cc1	inconclusive: 56.2 µM [inhibitor, full curve]	
S=C(Nc1ccc(Nc2ccccc2)cc1)Nc1ccccn1	active: 5.62 µM	
O=C(COc1ccc(Cl)cc1Cl)Nc1ccc2c(c1)CCN2C(=O)c1cccnc1	inconclusive: 44.7 µM [inhibitor, partial curve, poor fit]	
C(=C\c1ccccc1)/CN1CCN(C(c2cccs2)c2nnnn2-c2ccc3c(c2)OCCO3)CC1 (stereo not drawn)	inconclusive: 1.12 µM [inhibitor, full curve, poor fit]	
CCCCNC(=S)Nc1ccc(SC(F)F)cc1	inconclusive: 39.8 µM [inhibitor, partial curve, poor fit]	

An excerpt from above in order of heavy-atom count, descending.
SMILES	Potency	activity change, negative = inhibition
CCOCCCNC(=O)CCn1ccc2cc(S(=O)(=O)N3CCCCC3)ccc21	inconclusive: 39.8 µM [inhibitor, partial curve, poor fit]	
COc1cccc(Cn2cnc(-c3ccccc3OC)c2-c2cccs2)c1	inconclusive: 28.2 µM [inhibitor, partial curve, poor fit]	
c1ccc(-c2noc(C3CCCCC3)n2)nc1	inconclusive: 22.4 µM [inhibitor, partial curve, poor fit]	
